PubChem BioAssay AID504791 | Drosophila RNAi Screening Center | 2011
The screen tested about 23,000 reagents; below is an unselected part of those with a known target gene and a result. Of all reagents, 199 (0.86%) were called active. 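Plate-scaled ratios behind the calls are not deposited; printed light signals are raw; many rows marked increased or decreased are still called inactive.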 A number with no mark means an inactive call.

Test: 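Factors in Argonaute-based small RNA production and activity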 (primary screen)
Cell system: Drosophila S2-derived reporter cells
Knock-down reagent: long dsRNA against Drosophila genes, about 150-250 ng dsRNA per well (siRNA assay); about 80-120 ng (miRNA assay)
Duration: about 5 days (siRNA assay); about 4 days (miRNA assay)
Conditions: copper sulfate induction of reporters: 25 µM (siRNA assay); 200 mM stated (miRNA assay), 1-2 days before reading
Measured: 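Dual luciferase assay: Renilla to firefly signal ratio in each well, scaled to the mean ratio of its plate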
Scale: siRNA reporter hit score: higher = 3 marks a strong hit with raised ratio; -3 a strong hit with lowered ratio
Call rule: 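a well was a first-pass pick when its plate-scaled ratio rose above 1.5 (siRNA assay) or 1.6 (miRNA assay), or dropped below 0.6; a gene counted only if two separate dsRNAs agreed on retest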

gene knocked down,dsRNA,siRNA reporter hit score,stable siRNA reporter change,"stable assay Renilla, run 1 (luminescence)","stable assay firefly, run 1 (luminescence)"
CG6749,DRSC10704,,,5244,3.17e5
CG14492,DRSC06463,,,5127,3.63e5
snRNA:U1:95Cc,DRSC13640,,,4067,2.91e5
CG4768,DRSC19917,,reporter ratio lowered past the hit cutoff,5551,5.50e5
CG10164,DRSC14197,,,4526,3.83e5
Cap-D2,DRSC15401,,,9359,5.35e5
CG8249,DRSC07125,,,6091,3.52e5
CG14968,DRSC08427,,,6826,5.05e5
akirin,DRSC11000,-3,,9206,4.00e5
Sf3a1,DRSC15166,,reporter ratio lowered past the hit cutoff (active),7935,5.32e5
CG8329,DRSC10978,,,6424,3.38e5
r,DRSC19813,,,3008,3.18e5
r,DRSC19814,,,3459,3.44e5
CG12116,DRSC17812,,,5318,2.62e5
CG31087,DRSC14253,,,5296,2.90e5
gnu,DRSC10497,,,9282,3.37e5
CG30203,DRSC06690,,,6386,3.76e5
CG9331,DRSC03206,,,26999,6.72e5
CG31139,DRSC21393,,,9447,5.28e5

Next part, starting with the last 2 of the part before.
gene knocked down,dsRNA,siRNA reporter hit score,stable siRNA reporter change,"stable assay Renilla, run 1 (luminescence)","stable assay firefly, run 1 (luminescence)"
CG9331,DRSC03206,,,26999,6.72e5
CG31139,DRSC21393,,,9447,5.28e5
Targ1,DRSC11616,,,7183,4.73e5
Arpc5,DRSC00730,,,6260,3.16e5
CG9396,DRSC16487,,,6846,5.03e5
Ccdc114,DRSC15025,,,7981,4.78e5
Obp50a,DRSC22152,,,8431,5.68e5
CG15506,DRSC15047,,,6199,3.62e5
Sodh1,DRSC12605,,,8039,3.93e5
CG14088,DRSC10092,,,6872,4.45e5
CG18336,DRSC06334,,,6563,3.65e5
CG18132,DRSC00518,,,7234,4.19e5
AstC-R1,DRSC10799,,,7742,4.73e5
T48,DRSC16878,,,6158,3.99e5
Phyhd1,DRSC14911,,,6984,4.96e5
CG13613,DRSC14616,,,7463,3.30e5
CG12857,DRSC06197,,,7040,3.61e5
